Some of the results follow. These are further read-outs of the screen, such as a control signal, another cell line or another target. No call is given for them. For part of these data: Most of these compounds were active or inconclusive in the main read-out, so they are no random draw.
test: PubChem AID 1586; conditions: yeast two-hybrid polyglutamine protein interaction, reporter readout; measured here: averaged growth delta OD

| SMILES | signal change (36 h minus 0 h) |
| --- | --- |
| CC1CCC2(OC1)OC1CC3C4CC[C@H]5C[C@@H](O)CC[C@]5(C)C4CC(=O)[C@]3(C)C1C2C (some centres not stated) | 0.204 |
| O=C(CCCN1CC=C(n2c(=O)[nH]c3ccccc32)CC1)c1ccc(F)cc1 | 0.109 |
| Cc1c(NC(=O)c2cccnc2)c(=O)n(-c2ccccc2)n1C | 0.105 |
| O=C1NCC2(CCN(CCc3ccccc3)CC2)O1 | 0.152 |
| Oc1cccc(O)c1 | 0.167 |
| C[N+]12CCC(CC1)C(OC(=O)C(O)(c1ccccc1)c1ccccc1)C2 (configuration not stated) | 0.109 |
| CC(C)[C@@H](C)/C=C/[C@@H](C)C1CC[C@H]2/C(=C/C=C3\C[C@@H](O)CC[C@@H]3C)CCC[C@]12C (some centres not stated) | 0.126 |
| Cc1cccc(N(C)C(=S)Oc2ccc3ccccc3c2)c1 | 0.191 |
| CCCCCC(=O)O[C@]1(C(C)=O)CCC2C3CCC4=CC(=O)CC[C@]4(C)C3CC[C@@]21C (some centres not stated) | -0.181 |
| CN(C)CCOC(c1ccccc1)c1ccccc1 | 0.222 |
| CC1(C)O[C@@H]2CC3C4C[C@H](F)C5=CC(=O)CC[C@]5(C)C4[C@@H](O)C[C@]3(C)[C@]2(C(=O)CO)O1 (some centres not stated) | 0.199 |
| COc1ccc(Cl)cc1C(=O)NCCc1ccc(S(=O)(=O)NC(=O)NC2CCCCC2)cc1 | 0.152 |
| Cc1ccc(N(CC2=NCCN2)c2cccc(O)c2)cc1 | 0.0961 |
| CSc1ccc2c(c1)C(N1CCN(C)CC1)Cc1ccccc1S2 (configuration not stated) | 0.259 |
| S=c1nc[nH]c2nc[nH]c12 | 0.126 |
| COc1cnc(NS(=O)(=O)c2ccc(N)cc2)nc1 | 0.0795 |
| CC(Cc1cccc(C(F)(F)F)c1)NCCOC(=O)c1ccccc1 (configuration not stated) | 0.162 |
| Cc1cccc(CN2CCN(C(c3ccccc3)c3ccc(Cl)cc3)CC2)c1 (configuration not stated) | 0.121 |
| c1ccc(CN(CC2=NCCN2)c2ccccc2)cc1 | 0.156 |
| COC(=O)/C(=C1\OC(=O)C(c2ccccc2)C1=O)c1ccccc1 (configuration not stated) | 0.0674 |

| SMILES | signal change (36 h minus 0 h) |
| --- | --- |
| COc1cc(OC)c2ccc(=O)oc2c1 | 0.158 |
| COc1cc(NS(=O)(=O)c2ccc(N)cc2)nc(OC)n1 | 0.155 |
| CCCCCC(C)N (configuration not stated) | 0.246 |
| NC1=NCCN1CC(=O)O | 0.137 |
| COC(=O)C1[C@H]2C[C@H]3c4[nH]c5ccccc5c4CCN3C[C@@H]2CC[C@@H]1O (some centres not stated) | 0.0199 |
| CSCCC(NC=O)C(=O)NC(C)C(=O)O (configuration not stated) | 0.15 |
| CC(C)(Oc1ccc(Cl)cc1)C(=O)O | 0.029 |
| O=C1c2cccc(O)c2C(=O)c2c(O)cccc21 | 0.0722 |
| CC(=O)OCC(=O)[C@@]12OC(C)(C)O[C@@H]1C[C@H]1C3C[C@H](F)C4=CC(=O)C=CC4(C)[C@@]3(F)[C@@H](O)C[C@@]12C (some centres not stated) | 0.112 |
| CN(C)CCCN1c2ccccc2CCc2ccc(Cl)cc21 | 0.182 |
| CC(=O)OCC[N+](C)(C)C | 0.321 |
| O=C(CCBr)N1CCN(C(=O)CCBr)CC1 | 0.118 |
| Nc1nc2c(c(=O)[nH]1)N(C=O)C(CNc1ccc(C(=O)N[C@@H](CCC(=O)O)C(=O)O)cc1)CN2 (some centres not stated) | 0.0346 |
| O=C(O)CCC(=O)c1ccc(-c2ccccc2)cc1 | 0.0521 |
| CC[C@@H](C(=O)[C@@H](C)[C@@H](O)[C@H](C)[C@@H]1O[C@@H]([C@@H](CC)C(=O)O)CC[C@@H]1C)[C@H]1OC2(C=C[C@@H](O)[C@]3(CC[C@@](C)([C@H]4CC[C@](O)(CC)[C@H](C)O4)O3)O2)[C@H](C)C[C@@H]1C (some centres not stated) | 0.12 |
| COC(=O)[C@H]1[C@H]2C[C@H]3c4[nH]c5ccccc5c4CCN3C[C@H]2CC[C@@H]1O | 0.153 |
| CC1(C)C2CC[C@]3(C)C(C(=O)C=C4[C@@H]5C[C@@](C)(C(=O)O)CC[C@]5(C)CC[C@]43C)[C@@]2(C)CC[C@@H]1O (some centres not stated) | 0.183 |
| CCCCC(CC)CN=C(N)NC(N)=NCCCCCCN=C(N)NC(N)=NCC(CC)CCCC (configuration not stated) | -0.0782 |
| Cc1ncc([N+](=O)[O-])n1CCO | 0.117 |

test: enhancers of SMN2 over SMN1 splicing, cell-based, SMN2/SMN1 luciferase reporters (AID 1598); conditions: SMN2 vs SMN1 luciferase splicing reporter cells, at 10 µM; SMN1 luciferase ratio: measured here: SMN1 luciferase reporter average; SMN2 luciferase ratio: measured here: SMN2 luciferase reporter average, stronger effect = higher value

| SMILES | SMN1 luciferase ratio | SMN2 luciferase ratio |
| --- | --- | --- |
| CC1CCC2(OC1)OC1CC3C4CC[C@H]5C[C@@H](O)CC[C@]5(C)C4CC(=O)[C@]3(C)C1C2C (some centres not stated) | 0.85 | 0.95 |
| O=C(CCCN1CC=C(n2c(=O)[nH]c3ccccc32)CC1)c1ccc(F)cc1 | 0.83 | 0.88 |
| Cc1c(NC(=O)c2cccnc2)c(=O)n(-c2ccccc2)n1C | 0.94 | 0.89 |
| O=C1NCC2(CCN(CCc3ccccc3)CC2)O1 | 0.89 | 0.84 |
| Oc1cccc(O)c1 | 0.92 | 0.9 |
| C[N+]12CCC(CC1)C(OC(=O)C(O)(c1ccccc1)c1ccccc1)C2 (configuration not stated) | 0.88 | 0.97 |
| CC(C)[C@@H](C)/C=C/[C@@H](C)C1CC[C@H]2/C(=C/C=C3\C[C@@H](O)CC[C@@H]3C)CCC[C@]12C (some centres not stated) | 0.92 | 0.91 |
| Cc1cccc(N(C)C(=S)Oc2ccc3ccccc3c2)c1 | 0.87 | 0.89 |
| CCCCCC(=O)O[C@]1(C(C)=O)CCC2C3CCC4=CC(=O)CC[C@]4(C)C3CC[C@@]21C (some centres not stated) | 0.82 | 0.88 |
| CN(C)CCOC(c1ccccc1)c1ccccc1 | 0.88 | 0.86 |
| CC1(C)O[C@@H]2CC3C4C[C@H](F)C5=CC(=O)CC[C@]5(C)C4[C@@H](O)C[C@]3(C)[C@]2(C(=O)CO)O1 (some centres not stated) | 0.84 | 0.92 |
| COc1ccc(Cl)cc1C(=O)NCCc1ccc(S(=O)(=O)NC(=O)NC2CCCCC2)cc1 | 0.91 | 0.94 |
| Cc1ccc(N(CC2=NCCN2)c2cccc(O)c2)cc1 | 0.93 | 0.89 |
| CSc1ccc2c(c1)C(N1CCN(C)CC1)Cc1ccccc1S2 (configuration not stated) | 0.91 | 0.93 |
| S=c1nc[nH]c2nc[nH]c12 | 0.81 | 0.88 |
| COc1cnc(NS(=O)(=O)c2ccc(N)cc2)nc1 | 0.81 | 0.8 |
| CC(Cc1cccc(C(F)(F)F)c1)NCCOC(=O)c1ccccc1 (configuration not stated) | 0.86 | 0.9 |
| Cc1cccc(CN2CCN(C(c3ccccc3)c3ccc(Cl)cc3)CC2)c1 (configuration not stated) | 0.86 | 0.83 |
| c1ccc(CN(CC2=NCCN2)c2ccccc2)cc1 | 0.85 | 0.8 |
| COC(=O)/C(=C1\OC(=O)C(c2ccccc2)C1=O)c1ccccc1 (configuration not stated) | 1.46 | 1.39 |

Arranged by number of heavy atoms (low to high): part of the list above.

| SMILES | SMN1 luciferase ratio | SMN2 luciferase ratio |
| --- | --- | --- |
| S=c1nc[nH]c2nc[nH]c12 | 0.81 | 0.88 |
| Cc1c(NC(=O)c2cccnc2)c(=O)n(-c2ccccc2)n1C | 0.94 | 0.89 |
| COC(=O)/C(=C1\OC(=O)C(c2ccccc2)C1=O)c1ccccc1 (configuration not stated) | 1.46 | 1.39 |
| C[N+]12CCC(CC1)C(OC(=O)C(O)(c1ccccc1)c1ccccc1)C2 (configuration not stated) | 0.88 | 0.97 |
| Cc1cccc(CN2CCN(C(c3ccccc3)c3ccc(Cl)cc3)CC2)c1 (configuration not stated) | 0.86 | 0.83 |
| CC1CCC2(OC1)OC1CC3C4CC[C@H]5C[C@@H](O)CC[C@]5(C)C4CC(=O)[C@]3(C)C1C2C (some centres not stated) | 0.85 | 0.95 |

Carrying on:

| SMILES | SMN1 luciferase ratio | SMN2 luciferase ratio |
| --- | --- | --- |
| COc1cc(OC)c2ccc(=O)oc2c1 | 0.91 | 0.8 |
| COc1cc(NS(=O)(=O)c2ccc(N)cc2)nc(OC)n1 | 0.76 | 0.93 |
| CCCCCC(C)N (configuration not stated) | 0.81 | 0.88 |
| NC1=NCCN1CC(=O)O | 0.83 | 0.89 |
| COC(=O)C1[C@H]2C[C@H]3c4[nH]c5ccccc5c4CCN3C[C@@H]2CC[C@@H]1O (some centres not stated) | 1.01 | 0.88 |
| CSCCC(NC=O)C(=O)NC(C)C(=O)O (configuration not stated) | 0.91 | 0.89 |
| CC(C)(Oc1ccc(Cl)cc1)C(=O)O | 0.93 | 1.02 |
| O=C1c2cccc(O)c2C(=O)c2c(O)cccc21 | 0.92 | 0.84 |
| CC(=O)OCC(=O)[C@@]12OC(C)(C)O[C@@H]1C[C@H]1C3C[C@H](F)C4=CC(=O)C=CC4(C)[C@@]3(F)[C@@H](O)C[C@@]12C (some centres not stated) | 0.86 | 0.77 |
| CN(C)CCCN1c2ccccc2CCc2ccc(Cl)cc21 | 0.83 | 0.82 |
| CC(=O)OCC[N+](C)(C)C | 0.94 | 0.92 |
| O=C(CCBr)N1CCN(C(=O)CCBr)CC1 | 0.87 | 0.86 |
| Nc1nc2c(c(=O)[nH]1)N(C=O)C(CNc1ccc(C(=O)N[C@@H](CCC(=O)O)C(=O)O)cc1)CN2 (some centres not stated) | 0.98 | 0.98 |
| O=C(O)CCC(=O)c1ccc(-c2ccccc2)cc1 | 0.99 | 1.01 |
| CC[C@@H](C(=O)[C@@H](C)[C@@H](O)[C@H](C)[C@@H]1O[C@@H]([C@@H](CC)C(=O)O)CC[C@@H]1C)[C@H]1OC2(C=C[C@@H](O)[C@]3(CC[C@@](C)([C@H]4CC[C@](O)(CC)[C@H](C)O4)O3)O2)[C@H](C)C[C@@H]1C (some centres not stated) | 0.47 | 0.55 |
| COC(=O)[C@H]1[C@H]2C[C@H]3c4[nH]c5ccccc5c4CCN3C[C@H]2CC[C@@H]1O | 0.86 | 1.03 |
| CC1(C)C2CC[C@]3(C)C(C(=O)C=C4[C@@H]5C[C@@](C)(C(=O)O)CC[C@]5(C)CC[C@]43C)[C@@]2(C)CC[C@@H]1O (some centres not stated) | 0.88 | 0.94 |
| CCCCC(CC)CN=C(N)NC(N)=NCCCCCCN=C(N)NC(N)=NCC(CC)CCCC (configuration not stated) | 0.31 | 0.31 |
| Cc1ncc([N+](=O)[O-])n1CCO | 0.91 | 0.83 |

From PubChem BioAssay
